Source: article PMC6451096, “Molecular basis for transfer RNA recognition by the double-stranded RNA-binding domain of human dihydrouridine synthase 2”
Numbering of substitutions follows the chain as printed. Construct, isoform or probe ends are uncertain for at least one entry. For some assays here: At least one verdict was read from the data and is not stated in words by the source. Tags and fusion partners may be left off the protein sequences shown. For some assays here: The direction of at least one scale is not stated here.

Columns and labels:
[1] = target: T1, hDus2 dsRBD Q367A (Homo sapiens) (UniProt Q9NX74); assay: EMSA; conditions: impaired discrimination between dsRNA and tRNA; EMSA: 50 mM Tris-HCl pH 8, 10% glycerol, 5 mM DTT, 150 mM ammonium acetate, 1 uM tRNALys3, 20 min room temperature; 6% native PAGE at 4 C; recombinant protein; residues 339-451
T1 sequence (looked up): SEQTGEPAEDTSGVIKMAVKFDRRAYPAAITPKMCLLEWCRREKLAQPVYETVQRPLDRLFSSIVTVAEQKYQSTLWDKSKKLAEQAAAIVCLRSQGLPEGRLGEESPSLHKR

[2] = target: T2, hDus2 dsRBD R362A (Homo sapiens) (UniProt Q9NX74); assay: EMSA; conditions: EMSA: 50 mM Tris-HCl pH 8, 10% glycerol, 5 mM DTT, 150 mM ammonium acetate, 1 uM tRNALys3, 20 min room temperature; 6% native PAGE at 4 C; recombinant protein; residues 339-451; scale: fold lower affinity than same mutant for tRNA
T2 sequence (looked up): T1 sequence (looked up) with R24A, A29Q

“CGAACUUCGCG / CGAACUUCGCG [11-nt palindromic dsRNA]” was tested, and the binding result [1] was “binds” and the binding signal [2] was 3.
